From article PMC4976663

Protein sequences, listed by entry. Tags and fused reporters are not part of them. Lines headed by an entry give the natural chain unless they say otherwise; changes in a name come on top.
UniProt Q99P50: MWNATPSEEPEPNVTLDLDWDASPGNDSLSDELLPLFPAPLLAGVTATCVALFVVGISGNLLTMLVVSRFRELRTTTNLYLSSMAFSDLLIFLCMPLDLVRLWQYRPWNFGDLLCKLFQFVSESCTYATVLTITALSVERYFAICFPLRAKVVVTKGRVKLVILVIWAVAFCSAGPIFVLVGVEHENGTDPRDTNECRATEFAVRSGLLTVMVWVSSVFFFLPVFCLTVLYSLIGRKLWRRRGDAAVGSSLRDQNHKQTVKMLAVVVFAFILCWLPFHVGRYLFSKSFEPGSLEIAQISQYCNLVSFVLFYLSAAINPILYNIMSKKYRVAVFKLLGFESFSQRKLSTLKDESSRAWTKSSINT

Target: growth hormone secretagogues receptor (GHSR) as tested with RNF11 in Figure S1 (not stated (human or mouse cDNA cloned)) (UniProt Q99P50)
Experiment: split reporter; YFP-BiFc with full-length genes in transfected HEK293 cells; YFP-fluorescent cells counted by flow cytometry (FACS Canto II), 50,000 cells per sample; values of both tag orientations (YFP1/YFP2) combined

binding: binds
B1: ring finger protein 11 (RNF11), murine, full length, fused to a YFP fragment (protein, UniProt Q9QYK7 1-154)
chain: MGNCLKSPTSDDISLLHESQSDRASFGEGTEPDQEPPPPYQEQVPVPIYHPTPSQTRLATQLTEEEQIRIAQRIGLIQHLPKGVYDPGRDGSEKKIRECVICMMDFVYGDPIRFLPCMHIYHLDCIDDWLMRSFTCPSCMEPVDAALLSSYETN

No constants are given. Whether binding was seen depends on the method and setting. Binding seen in cells or lysates may run through a third protein. Binding can be weak; no strength is given. Where a sequence is shown, tags or fusion partners need not be part of it.
